Some of these results come from one statement about several compounds together.
Key:
[1] = system: Wild-type mice (C57BL/6); test: Blood glucose in wild-type mice; format: in vivo; details: 0.1 mg/kg i.p., C57BL/6, fasted 6 hours after administration
Protocol: Wild-type mice (C57BL/6) aged 3 months to 4 months under normal feeding conditions were intraperitoneally injected with different drugs at 0.1 mg/kg. Mice injected with normal saline served as the control group. Mice were fasted for 6 hours after administration. Blood was collected from the tail of each mouse to measure blood glucose levels. Each group consisted of 9 mice.

[2] = system: SK-N-SH cells; test: Effects of compounds on cellular ATP levels (Promega ATP assay); format: cell-based, human; details: 1 μM, 48 hours, 5% O2; untreated = 1
Protocol: Effects of compounds on cellular ATP levels.
Human Neuroblastoma Cell Line (SK-N-SH) is a human-derived neuroblastoma cell line. SK-N-SH cells were seeded in a 6-well plate at a density of 6×10^4 cells per well. The cells were cultured for 12 hours under 5% O2. Various drugs at a concentration of 1 μM were added. After 48 hours, the cells were harvested. Cellular ATP levels were measured using the Promega ATP assay kit. The experiment was repeated 6 times to 10 times. The experimental results were illustrated in FIG. 1. […] T1 to T11 were the experimental groups.

[3] = target: T1, Pgk1 (Homo sapiens, UniProt P00558); test: Affinity for Pgk1 protein (Biacore T200); format: binding
T1 sequence (P00558 1-417): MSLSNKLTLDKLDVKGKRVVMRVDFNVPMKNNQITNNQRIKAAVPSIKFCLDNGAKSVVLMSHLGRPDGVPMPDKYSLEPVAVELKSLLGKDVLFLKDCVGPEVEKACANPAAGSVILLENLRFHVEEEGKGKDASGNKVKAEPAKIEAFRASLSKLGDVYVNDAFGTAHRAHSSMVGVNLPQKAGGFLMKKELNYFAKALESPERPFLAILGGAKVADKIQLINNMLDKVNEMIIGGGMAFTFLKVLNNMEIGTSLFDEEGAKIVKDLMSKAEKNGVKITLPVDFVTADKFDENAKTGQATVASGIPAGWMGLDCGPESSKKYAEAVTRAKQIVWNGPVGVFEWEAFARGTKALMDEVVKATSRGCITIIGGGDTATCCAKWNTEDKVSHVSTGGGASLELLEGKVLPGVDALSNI
Protocol: Example 30: Determination of Affinities of Compounds for Pgk1 Protein
Purified Pgk1 protein (with a concentration of 1 mg/mL) was immobilized on a Biacore T200 chip. […] The obtained curves can calculate parameters such as affinity and Rmax.

SMILES	Hypoglycemic effect [1]	Activity in increasing cellular ATP [2]	Affinity for Pgk1 protein (in words) [3]
Nc1nc(N2CCN(C(=O)[C@H]3CCCO3)CC2)cc2cc3c(cc12)OCC3 [Compound T6]	significant hypoglycemic effect	exhibited an activity in increasing cellular ATP	showed affinity for Pgk1 protein, but their affinities for Pgk1 protein were much lower than that of terazosin
CC1Oc2cc3cc(N4CCN(C(=O)[C@H]5CCCO5)CC4)nc(N)c3cc2O1 (stereo partly drawn) [Compound T3]	significant hypoglycemic effect	exhibited an activity in increasing cellular ATP	showed affinity for Pgk1 protein, but their affinities for Pgk1 protein were much lower than that of terazosin
Nc1nc(N2CCN(C(=O)C3CCCC3)CC2)cc2cc3c(cc12)OCO3 [Compound T7]	significant hypoglycemic effect	exhibited an activity in increasing cellular ATP	showed affinity for Pgk1 protein, but their affinities for Pgk1 protein were much lower than that of terazosin
Nc1nc(N2CCN(C(=O)[C@H]3CCCO3)CC2)cc2cc3c(cc12)OCO3 [Compound T1]	significant hypoglycemic effect	exhibited an activity in increasing cellular ATP	showed affinity for Pgk1 protein, but their affinities for Pgk1 protein were much lower than that of terazosin
Nc1nc(N2CCN(C(=O)[C@H]3CCCO3)CC2)cc2cc3c(cc12)CCO3 [Compound T5]	significant hypoglycemic effect	exhibited an activity in increasing cellular ATP	showed affinity for Pgk1 protein, but their affinities for Pgk1 protein were much lower than that of terazosin
Nc1nc(N2CCN(C(=O)[C@H]3CCCN3)CC2)cc2cc3c(cc12)OCO3 [Compound T8]	significant hypoglycemic effect	exhibited an activity in increasing cellular ATP	showed affinity for Pgk1 protein, but their affinities for Pgk1 protein were much lower than that of terazosin
Nc1nc(N2CCN(C(=O)[C@@H]3CCCO3)CC2)cc2cc3c(cc12)OCO3 [Compound T2]	significant hypoglycemic effect	exhibited an activity in increasing cellular ATP	showed affinity for Pgk1 protein, but their affinities for Pgk1 protein were much lower than that of terazosin
CC1(C)Oc2cc3cc(N4CCN(C(=O)[C@H]5CCCO5)CC4)nc(N)c3cc2O1 [Compound T4]	significant hypoglycemic effect	exhibited an activity in increasing cellular ATP	showed affinity for Pgk1 protein, but their affinities for Pgk1 protein were much lower than that of terazosin
Nc1nc(N2CCN(C(=O)[C@@H]3CCCN3)CC2)cc2cc3c(cc12)OCO3 [Compound T9]	significant hypoglycemic effect	exhibited an activity in increasing cellular ATP	showed affinity for Pgk1 protein, but their affinities for Pgk1 protein were much lower than that of terazosin
